We go through one compound from article PMC5995255, “CD44 positive and sorafenib insensitive hepatocellular carcinomas respond to the ATP-competitive mTOR inhibitor INK128” (Oncotarget, 2018).

The assay relates to CD44high HCC cells (SNU423, SNU449, SK-Hep-1). Kind of assay: Cell proliferation, WST-1 assay, CD44high HCC cells. Type of assay: cell-based, human. As to conditions: SNU423 and SNU449 cells; 48 h.

Take `CC(C)n1nc(-c2cc3cc(O)ccc3[nH]2)c2c(N)ncnc21` [PP242]: the “anti-proliferative activity versus allosteric mTOR inhibitors” value is “better anti-proliferative activity than rapamycin and everolimus”.
